Test results taken from the supplement of paper PMC12889115.
The other results are listed elsewhere or left out. Values are raw readings; no control value is given beside them.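 First-pass screen: polymyxin B was added at a level that permeabilizes the Salmonella outer membrane while sparing the inner membrane. DMSO wells, with and without polymyxin B, defined maximum growth. Because plates differed from one another, each plate's data were ranked separately and the compounds with the lowest OD600 were carried forward as hits.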

Tested on: Salmonella enterica serovar Typhimurium SL1344
Assay: bacterial growth OD600 after 18 h with compound and polymyxin B; higher = more bacterial growth (less inhibition)
Conditions: 50 µM, Mueller-Hinton broth

COc1ccc(CCN2CCCC(CN(C)Cc3nc4c(s3)CCCC4)C2)cc1 (stereo not given)
bacterial growth OD600 (polymyxin B 0.75 µg/mL): 0.622

O=C(c1ccc(NCCCO)nc1)N1CCCC(c2ccccc2)CC1 (stereo not given)
bacterial growth OD600 (polymyxin B 1 µg/mL): 1.02

CCOC(=O)N1CCC(NC2CCCN(c3nc4ccccc4s3)C2)CC1 (stereo not given)
bacterial growth OD600 (polymyxin B 1 µg/mL): 0.895

COc1ccc(CCN2CCCC(CN(C)CC(C)(C)CO)C2)cc1 (stereo not given)
bacterial growth OD600 (polymyxin B 0.75 µg/mL): 0.79

CN(Cc1nc(-c2cnccn2)no1)Cc1cccc2ccccc12
bacterial growth OD600 (polymyxin B 1 µg/mL): 0.936

C#CCN(C(=O)CCC1(Cc2ccc(SC)cc2)CCC(=O)N1)C1CCCCC1 (stereo not given)
bacterial growth OD600 (polymyxin B 0.75 µg/mL): 0.751

CC(C)n1cc(C(=O)N(C)CC2CCCN(CCc3ccc(Cl)cc3)C2)cn1 (stereo not given)
bacterial growth OD600 (polymyxin B 1 µg/mL): 0.93

Cc1cccc(CNC(=O)C2CCCN(C3CCN(Cc4ccccc4)CC3)C2)n1 (stereo not given)
bacterial growth OD600 (polymyxin B 0.75 µg/mL): 0.834

CC(C)Cn1cc(C(=O)NC(c2ccco2)C(F)(F)F)c(=O)c(C(=O)N2CCCCCC2)c1 (stereo not given)
bacterial growth OD600 (polymyxin B 0.75 µg/mL): 0.732

COc1ccc2cc(C(=O)C3CCCN(Cc4ccc(OC)c(OC)c4OC)C3)ccc2c1 (stereo not given)
bacterial growth OD600 (polymyxin B 1 µg/mL): 0.593

CCOc1cccc(CN2CCC3(CC2)c2ccccc2[C@@H](NC(=O)Cc2cccs2)[C@@H]3OC)c1
bacterial growth OD600 (polymyxin B 0.75 µg/mL): 0.797

CCN(Cc1ccccc1)C(=O)CC1(c2cccc(C(F)(F)F)c2)CC(=O)N(C2CC2)C1=O (stereo not given)
bacterial growth OD600 (polymyxin B 0.75 µg/mL): 0.001

CCN(CC1CCCO1)C(=O)CC1(c2cccc(C(F)(F)F)c2)CC(=O)N(C2CC2)C1=O (stereo not given)
bacterial growth OD600 (polymyxin B 0.75 µg/mL): 0.875

Cc1cccc(C)c1OCc1cc(C(=O)NCc2cccnc2)no1
bacterial growth OD600 (polymyxin B 0.75 µg/mL): 0.787

O=C(NCCc1cccc(F)c1)C1CCC(=O)N(CCCc2ccccc2)C1 (stereo not given)
bacterial growth OD600 (polymyxin B 1 µg/mL): 0.825

COc1ccccc1CCNC(=O)Cc1ccc(N2CCC(NCc3cccc(F)c3)CC2)cc1
bacterial growth OD600 (polymyxin B 0.75 µg/mL): 0.796

CN(C)S(=O)(=O)N1CCC(C2CCN(CCc3ccccc3)C2)CC1 (stereo not given)
bacterial growth OD600 (polymyxin B 0.75 µg/mL): 0.991

CN(C(=O)CC1C(=O)NCCN1Cc1ccccc1)C1CC(C)(C)NC(C)(C)C1 (stereo not given)
bacterial growth OD600 (polymyxin B 1 µg/mL): 1.04

COc1ccccc1-c1ccnc(-n2ncc(C(=O)N3CCN(c4ccccc4OC)CC3)c2C)n1
bacterial growth OD600 (polymyxin B 0.75 µg/mL): 0.603

O=C(c1ccc2[nH]ccc2c1)N1CCCC(c2nc(-c3cccnc3)ncc2-c2ccccc2F)C1 (stereo not given)
bacterial growth OD600 (polymyxin B 0.75 µg/mL): 0.036

COCC1CCCCN1C(=O)c1coc(COc2ccc(F)cc2Cl)n1 (stereo not given)
bacterial growth OD600 (polymyxin B 1 µg/mL): 0.891

Cc1ccccc1C(CC(=O)N(C)Cc1ccncn1)c1ccccc1 (stereo not given)
bacterial growth OD600 (polymyxin B 0.75 µg/mL): 0.705

COCc1ccc(CN2CCC(n3nccc3NC(=O)C3CCCC3)CC2)o1
bacterial growth OD600 (polymyxin B 1 µg/mL): 0.968

CC(C)c1cc(CNC(=O)C2CCC(=O)N(CCCN3CCOCC3)C2)on1 (stereo not given)
bacterial growth OD600 (polymyxin B 1 µg/mL): 0.985

C=CCC(=O)NC1CCCc2c1cnn2-c1cccc(C)c1C (stereo not given)
bacterial growth OD600 (polymyxin B 1 µg/mL): 0.803

CCOC(=O)C1(Cc2ccccc2C(F)(F)F)CCN(C2CCSCC2)CC1
bacterial growth OD600 (polymyxin B 1 µg/mL): 0.927

Cc1ccn2cc(C(=O)N(C)C3CCCN(CCCc4ccccc4)C3)nc2c1 (stereo not given)
bacterial growth OD600 (polymyxin B 0.75 µg/mL): 0.741

CCOC(=O)C1(Cc2cccc(F)c2)CCN(Cc2c(C)nn(CC)c2C)CC1
bacterial growth OD600 (polymyxin B 1 µg/mL): 0.841

CN(Cc1ccc2nsnc2c1)C(=O)c1cn(CCc2ccccc2)nn1
bacterial growth OD600 (polymyxin B 1 µg/mL): 1.09

CCC(NC(=O)c1csc2nc(-c3ccc(F)cc3)cn12)c1ccncc1 (stereo not given)
bacterial growth OD600 (polymyxin B 1 µg/mL): 1.02
